From the supplement of paper PMC10849652
Some of the results follow.

By UniProt entry, the sequences of proteins in these tests, tags left out. Where a name states a change or a piece, a line headed by the entry shows the natural chain unless it says otherwise.
UniProt Q9NPH3, whole entry, looked up: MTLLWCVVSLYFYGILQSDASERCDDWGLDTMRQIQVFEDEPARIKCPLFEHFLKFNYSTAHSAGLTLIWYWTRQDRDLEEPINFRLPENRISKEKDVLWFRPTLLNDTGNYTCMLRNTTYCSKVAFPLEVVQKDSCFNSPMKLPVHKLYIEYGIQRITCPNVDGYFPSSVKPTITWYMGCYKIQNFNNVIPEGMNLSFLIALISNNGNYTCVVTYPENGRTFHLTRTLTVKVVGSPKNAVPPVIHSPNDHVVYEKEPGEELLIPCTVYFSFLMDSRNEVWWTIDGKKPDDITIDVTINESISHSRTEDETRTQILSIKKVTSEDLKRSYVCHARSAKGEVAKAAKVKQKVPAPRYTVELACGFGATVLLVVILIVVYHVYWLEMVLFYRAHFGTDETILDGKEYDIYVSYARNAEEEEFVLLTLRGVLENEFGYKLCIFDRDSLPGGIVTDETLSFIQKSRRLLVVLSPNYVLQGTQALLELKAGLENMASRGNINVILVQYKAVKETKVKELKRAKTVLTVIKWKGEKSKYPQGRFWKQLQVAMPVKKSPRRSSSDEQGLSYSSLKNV
UniProt P19827: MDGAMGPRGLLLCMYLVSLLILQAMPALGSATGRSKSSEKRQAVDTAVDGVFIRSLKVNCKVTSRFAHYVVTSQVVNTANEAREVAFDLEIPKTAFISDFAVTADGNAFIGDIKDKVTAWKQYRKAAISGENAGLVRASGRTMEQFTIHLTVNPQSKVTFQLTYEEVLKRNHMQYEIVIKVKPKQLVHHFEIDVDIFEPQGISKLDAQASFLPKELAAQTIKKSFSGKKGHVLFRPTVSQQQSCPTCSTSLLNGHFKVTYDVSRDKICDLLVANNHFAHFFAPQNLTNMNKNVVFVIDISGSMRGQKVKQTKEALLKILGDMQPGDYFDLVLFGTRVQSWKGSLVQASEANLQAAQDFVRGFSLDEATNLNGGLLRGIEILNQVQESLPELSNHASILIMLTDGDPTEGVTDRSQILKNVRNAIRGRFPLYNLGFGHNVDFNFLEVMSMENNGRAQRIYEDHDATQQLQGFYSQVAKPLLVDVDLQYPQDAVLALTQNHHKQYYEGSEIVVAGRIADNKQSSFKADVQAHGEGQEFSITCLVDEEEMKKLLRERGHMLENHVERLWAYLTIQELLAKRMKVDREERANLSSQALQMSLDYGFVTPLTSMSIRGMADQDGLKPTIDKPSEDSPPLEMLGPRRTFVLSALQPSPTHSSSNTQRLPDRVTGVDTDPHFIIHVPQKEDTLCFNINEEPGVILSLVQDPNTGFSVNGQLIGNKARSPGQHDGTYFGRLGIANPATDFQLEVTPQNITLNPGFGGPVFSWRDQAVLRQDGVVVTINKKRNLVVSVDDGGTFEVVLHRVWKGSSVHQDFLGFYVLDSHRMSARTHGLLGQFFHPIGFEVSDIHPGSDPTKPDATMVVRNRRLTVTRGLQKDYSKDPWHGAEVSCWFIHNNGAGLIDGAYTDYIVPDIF
UniProt Q9UK53: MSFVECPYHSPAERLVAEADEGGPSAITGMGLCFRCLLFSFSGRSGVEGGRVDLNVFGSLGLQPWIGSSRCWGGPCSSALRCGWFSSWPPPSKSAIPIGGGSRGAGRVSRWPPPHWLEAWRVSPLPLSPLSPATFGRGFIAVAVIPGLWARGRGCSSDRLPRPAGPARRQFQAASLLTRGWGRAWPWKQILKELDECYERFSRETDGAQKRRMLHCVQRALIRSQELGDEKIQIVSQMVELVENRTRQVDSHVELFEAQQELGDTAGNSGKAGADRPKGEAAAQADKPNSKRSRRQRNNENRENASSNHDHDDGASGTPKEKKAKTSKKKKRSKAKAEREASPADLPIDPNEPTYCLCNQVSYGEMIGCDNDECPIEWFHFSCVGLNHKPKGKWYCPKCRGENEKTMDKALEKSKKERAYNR
UniProt Q9H2S9: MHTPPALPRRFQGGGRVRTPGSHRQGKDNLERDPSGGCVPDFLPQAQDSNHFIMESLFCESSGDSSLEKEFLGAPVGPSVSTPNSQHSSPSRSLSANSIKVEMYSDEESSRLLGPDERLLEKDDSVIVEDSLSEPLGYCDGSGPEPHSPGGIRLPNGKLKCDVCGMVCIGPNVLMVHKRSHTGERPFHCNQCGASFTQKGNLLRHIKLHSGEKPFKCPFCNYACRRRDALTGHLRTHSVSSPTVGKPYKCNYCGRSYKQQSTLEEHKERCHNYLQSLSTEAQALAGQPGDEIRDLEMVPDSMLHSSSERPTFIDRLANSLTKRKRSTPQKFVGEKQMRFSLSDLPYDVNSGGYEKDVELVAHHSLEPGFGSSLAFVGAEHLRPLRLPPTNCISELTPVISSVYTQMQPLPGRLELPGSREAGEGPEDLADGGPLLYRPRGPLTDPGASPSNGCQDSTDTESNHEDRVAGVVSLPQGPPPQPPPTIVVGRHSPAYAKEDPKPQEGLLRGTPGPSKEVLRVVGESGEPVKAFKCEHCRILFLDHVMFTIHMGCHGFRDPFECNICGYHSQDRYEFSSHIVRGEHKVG
UniProt P58166: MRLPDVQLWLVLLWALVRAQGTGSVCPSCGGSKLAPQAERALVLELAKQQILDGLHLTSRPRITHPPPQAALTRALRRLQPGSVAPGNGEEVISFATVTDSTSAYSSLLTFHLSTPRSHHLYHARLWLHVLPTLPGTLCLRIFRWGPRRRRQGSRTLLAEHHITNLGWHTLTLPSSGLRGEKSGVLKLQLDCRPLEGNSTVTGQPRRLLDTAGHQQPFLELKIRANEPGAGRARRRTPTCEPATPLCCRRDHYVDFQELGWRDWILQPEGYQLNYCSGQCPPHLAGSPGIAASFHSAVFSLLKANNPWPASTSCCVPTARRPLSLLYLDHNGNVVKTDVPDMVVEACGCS
UniProt Q8N201, whole entry, looked up: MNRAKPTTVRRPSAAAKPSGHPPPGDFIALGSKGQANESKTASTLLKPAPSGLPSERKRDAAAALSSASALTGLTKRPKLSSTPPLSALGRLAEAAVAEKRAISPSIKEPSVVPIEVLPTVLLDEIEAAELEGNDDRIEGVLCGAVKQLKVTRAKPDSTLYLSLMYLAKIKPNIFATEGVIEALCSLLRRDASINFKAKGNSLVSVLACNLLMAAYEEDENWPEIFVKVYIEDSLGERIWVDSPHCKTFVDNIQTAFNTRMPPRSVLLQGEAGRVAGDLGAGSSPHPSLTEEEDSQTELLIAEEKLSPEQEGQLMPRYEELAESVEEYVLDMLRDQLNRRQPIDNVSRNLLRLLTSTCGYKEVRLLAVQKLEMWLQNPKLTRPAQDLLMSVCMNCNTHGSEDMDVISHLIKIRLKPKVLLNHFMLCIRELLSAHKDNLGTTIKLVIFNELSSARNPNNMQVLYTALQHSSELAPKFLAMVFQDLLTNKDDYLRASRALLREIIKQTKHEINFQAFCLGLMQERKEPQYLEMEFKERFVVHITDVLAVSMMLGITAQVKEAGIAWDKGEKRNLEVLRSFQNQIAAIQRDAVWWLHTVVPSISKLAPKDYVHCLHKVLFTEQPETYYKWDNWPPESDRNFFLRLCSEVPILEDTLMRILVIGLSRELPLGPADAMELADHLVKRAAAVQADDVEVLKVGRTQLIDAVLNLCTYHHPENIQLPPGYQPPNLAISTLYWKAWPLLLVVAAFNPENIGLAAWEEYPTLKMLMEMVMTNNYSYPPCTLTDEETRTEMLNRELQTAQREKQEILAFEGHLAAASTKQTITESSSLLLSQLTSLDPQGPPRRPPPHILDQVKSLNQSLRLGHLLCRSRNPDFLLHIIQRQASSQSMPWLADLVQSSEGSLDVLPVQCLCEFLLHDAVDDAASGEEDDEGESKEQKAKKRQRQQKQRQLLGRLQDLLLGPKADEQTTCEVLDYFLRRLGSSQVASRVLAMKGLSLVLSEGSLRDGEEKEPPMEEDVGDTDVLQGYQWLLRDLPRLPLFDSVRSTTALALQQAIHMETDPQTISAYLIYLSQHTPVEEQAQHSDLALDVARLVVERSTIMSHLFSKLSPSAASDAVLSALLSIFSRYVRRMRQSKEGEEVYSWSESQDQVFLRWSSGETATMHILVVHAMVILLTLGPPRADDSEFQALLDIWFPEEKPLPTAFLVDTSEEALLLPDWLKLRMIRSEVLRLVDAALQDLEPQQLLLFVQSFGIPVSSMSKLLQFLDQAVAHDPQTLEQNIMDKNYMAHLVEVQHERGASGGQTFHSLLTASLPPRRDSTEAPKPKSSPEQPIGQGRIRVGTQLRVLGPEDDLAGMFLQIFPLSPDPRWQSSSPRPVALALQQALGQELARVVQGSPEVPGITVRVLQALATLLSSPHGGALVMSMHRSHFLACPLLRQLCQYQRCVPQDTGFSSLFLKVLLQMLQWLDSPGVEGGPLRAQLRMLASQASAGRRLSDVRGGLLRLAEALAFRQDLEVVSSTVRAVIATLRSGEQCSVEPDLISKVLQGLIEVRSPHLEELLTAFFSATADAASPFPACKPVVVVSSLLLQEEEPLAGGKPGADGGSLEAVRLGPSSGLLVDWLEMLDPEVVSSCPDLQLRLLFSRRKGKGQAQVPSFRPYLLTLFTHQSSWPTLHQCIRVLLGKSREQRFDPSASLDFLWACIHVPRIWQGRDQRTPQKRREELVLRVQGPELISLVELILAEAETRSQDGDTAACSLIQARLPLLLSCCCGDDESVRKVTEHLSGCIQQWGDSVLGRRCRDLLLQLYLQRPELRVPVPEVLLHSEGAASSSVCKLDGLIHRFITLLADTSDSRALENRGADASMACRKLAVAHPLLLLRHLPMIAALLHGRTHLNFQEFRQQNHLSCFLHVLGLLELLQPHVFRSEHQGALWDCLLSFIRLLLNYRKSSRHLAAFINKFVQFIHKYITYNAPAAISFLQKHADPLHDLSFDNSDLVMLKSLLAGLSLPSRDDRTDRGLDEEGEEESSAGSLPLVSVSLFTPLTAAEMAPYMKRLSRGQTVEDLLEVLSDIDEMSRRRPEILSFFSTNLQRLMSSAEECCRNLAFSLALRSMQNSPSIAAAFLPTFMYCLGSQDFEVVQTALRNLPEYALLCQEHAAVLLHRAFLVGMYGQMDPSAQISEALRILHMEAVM
UniProt O15397, whole entry, looked up: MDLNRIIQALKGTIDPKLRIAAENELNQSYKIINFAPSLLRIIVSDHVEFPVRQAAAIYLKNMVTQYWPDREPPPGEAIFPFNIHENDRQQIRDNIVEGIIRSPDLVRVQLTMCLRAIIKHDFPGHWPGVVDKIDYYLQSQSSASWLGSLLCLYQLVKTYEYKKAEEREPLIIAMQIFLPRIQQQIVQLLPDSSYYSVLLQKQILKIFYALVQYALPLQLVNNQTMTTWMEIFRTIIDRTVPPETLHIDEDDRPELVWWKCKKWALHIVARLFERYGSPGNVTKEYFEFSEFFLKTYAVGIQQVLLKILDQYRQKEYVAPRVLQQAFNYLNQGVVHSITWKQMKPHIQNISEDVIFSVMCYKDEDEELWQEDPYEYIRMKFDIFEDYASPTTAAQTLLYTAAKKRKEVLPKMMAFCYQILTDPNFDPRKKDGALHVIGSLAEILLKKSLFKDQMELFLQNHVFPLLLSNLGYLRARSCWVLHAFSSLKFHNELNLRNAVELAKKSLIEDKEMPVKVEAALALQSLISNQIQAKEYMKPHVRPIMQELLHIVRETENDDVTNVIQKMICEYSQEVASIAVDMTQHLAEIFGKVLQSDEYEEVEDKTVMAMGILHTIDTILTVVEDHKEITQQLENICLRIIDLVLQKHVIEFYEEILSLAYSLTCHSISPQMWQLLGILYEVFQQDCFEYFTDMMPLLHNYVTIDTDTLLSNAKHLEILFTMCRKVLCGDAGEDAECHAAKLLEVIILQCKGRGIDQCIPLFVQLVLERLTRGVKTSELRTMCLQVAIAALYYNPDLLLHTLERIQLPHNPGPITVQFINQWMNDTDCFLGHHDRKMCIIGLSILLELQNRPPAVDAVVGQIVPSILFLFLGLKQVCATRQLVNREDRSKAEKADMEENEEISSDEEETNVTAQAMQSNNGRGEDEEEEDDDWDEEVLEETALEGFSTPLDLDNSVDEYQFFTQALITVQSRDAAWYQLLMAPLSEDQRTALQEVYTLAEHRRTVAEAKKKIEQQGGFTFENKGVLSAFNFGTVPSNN
UniProt Q8WYH8, whole entry, looked up: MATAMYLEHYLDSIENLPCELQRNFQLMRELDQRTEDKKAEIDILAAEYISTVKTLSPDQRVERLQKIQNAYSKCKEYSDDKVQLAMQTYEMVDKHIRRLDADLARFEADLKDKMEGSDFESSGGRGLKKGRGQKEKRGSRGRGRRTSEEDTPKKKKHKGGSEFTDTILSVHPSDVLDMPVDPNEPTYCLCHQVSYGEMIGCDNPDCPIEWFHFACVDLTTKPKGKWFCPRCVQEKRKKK

How the values were obtained:
Assay in all cases: log2 fold change, soluble protein after heating vs DMSO (PISA); higher = thermal stabilisation; K562 cells, 10 uM, 30 min; active = over 0.2 and 3.5 SD of the protein, either way, in both replicates (recomputed)
[1] = compound: CC[C@@H]1C(=O)N(C)c2cnc(Nc3ccc(C(=O)NC4CCN(C)CC4)cc3OC)nc2N1C1CCCC1
How it was run: (§1)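 K562 cells at 2×10^6 cells/mL were treated with 10 μM compound for 30 min. Aliquots were heated for 3 min across 48°C-58°C, pooled, and extracted in PBS with 0.5% NP-40 at 4°C; soluble protein was the supernatant after 21,000xg for 90 min. Soluble protein was quantified by TMTpro 16plex LC-MS/MS with channel sums equalised, and reported as log2 fold change in thermal stability against DMSO controls, with values from duplicates.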

volasertib = compound: CC[C@@H]1C(=O)N(C)c2cnc(Nc3ccc(C(=O)N[C@H]4CC[C@H](N5CCN(CC6CC6)CC5)CC4)cc3OC)nc2N1C(C)C [volasertib]
How it was run: as §1

epoxomicin = compound: CC[C@H](C)[C@@H](C(=O)N[C@@H]([C@@H](C)O)C(=O)N[C@@H](CC(C)C)C(=O)[C@]1(CO1)C)NC(=O)[C@H]([C@@H](C)CC)N(C)C(=O)C [epoxomicin]
How it was run: as §1

[2] = compound: CCn1cc(-c2ccnc3[nH]c(-c4cccc(CN(C)C)c4)cc23)c(-c2ccc(NC(=O)N(C)C)cc2)n1
How it was run: as §1

[3] = compound: CN(C)CC(=O)Nc1ccc2[nH]c(=O)c3ccccc3c2c1
How it was run: as §1

rosiglitazone = compound: CN(CCOC1=CC=C(C=C1)C[C@H]2C(=O)NC(=O)S2)C3=CC=CC=N3 (racemic) [rosiglitazone]
How it was run: as §1

[4] = compound: CN1C2=C(C3=C1C(=O)N(N=C3)CC4=CC(=CC=C4)N)SC(=C2)S(=O)C
How it was run: as §1

[5] = compound: CN1CCC(CNc2ccc3ncc(-c4cccc(OC(F)(F)F)c4)n3n2)CC1
How it was run: as §1

saracatinib = compound: CN1CCN(CCOc2cc(OC3CCOCC3)c3c(Nc4c(Cl)ccc5c4OCO5)ncnc3c2)CC1 [saracatinib]
How it was run: as §1

alvocidib = compound: CN1CC[C@H](c2c(O)cc(O)c3c(=O)cc(-c4ccccc4Cl)oc23)[C@H](O)C1 [alvocidib]
How it was run: as §1

Tubastatin A = compound: CN1CCc2c(c3ccccc3n2Cc2ccc(C(=O)NO)cc2)C1 [Tubastatin A]
How it was run: as §1

defactinib = compound: CNC(=O)c1ccc(Nc2ncc(C(F)(F)F)c(NCc3nccnc3N(C)S(C)(=O)=O)n2)cc1 [defactinib]
How it was run: as §1

rucaparib = compound: CNCc1ccc(-c2[nH]c3cc(F)cc4c3c2CCNC4=O)cc1 [rucaparib]
How it was run: as §1

[6] = compound: CNc1nc(-c2ccc3c(N)n[nH]c3c2)cc(N2C[C@@H](C(=O)NC3CCCCC3)CC[C@H]2C)n1
How it was run: as §1

encorafenib = compound: COC(=O)N[C@@H](C)CNc1nccc(-c2cn(C(C)C)nc2-c2cc(Cl)cc(NS(C)(=O)=O)c2F)n1 [encorafenib]
How it was run: as §1

[7] = compound: COC(=O)[C@H](CCSC)NC(=O)C1=C(C=C(C=C1)NC[C@H](CS)N)C2=CC=CC=C2
How it was run: as §1

[8] = compound: CCn1c(C(=O)N(C2CC2)C2CC2)cc2c3c(ncn3C)c(Nc3cc(C)n(C)n3)nc21
How it was run: as §1

[9] = compound: CNC(=O)C1=CC=CC=C1NC2=NC(=NC=C2Cl)NC3=C(C=C(C=C3)N4CCOCC4)OC
How it was run: as §1

sotrastaurin = compound: CN1CCN(c2nc(C3=C(c4c[nH]c5ccccc45)C(=O)NC3=O)c3ccccc3n2)CC1 [sotrastaurin]
How it was run: as §1

[10] = compound: CC[C@H](C)N1C=C(C2=C(C=C(C=C21)C3=CN=C(C=C3)N4CCNCC4)C(=O)NCC5=C(C=C(NC5=O)C)C)C
How it was run: as §1

Measured: log2 fold change

IL1RAP isoform 5 (UniProt Q9NPH3)
inactive: [1] 0.162 | volasertib -0.414 | epoxomicin -0.203 | [2] -0.032 | [3] -0.212 | rosiglitazone 0.159 | [4] 0.14 | [5] -0.253 | saracatinib -0.108 | alvocidib 0.144 | Tubastatin A -0.075 | defactinib -0.092 | rucaparib -0.186 | [6] -0.051 | encorafenib 0.139 | [7] -0.253

ITIH1 (UniProt P19827)
inactive: [1] 0.066 | [8] -0.184 | [9] 0.05 | rucaparib -0.017 | encorafenib 0.034

ING1 (UniProt Q9UK53)
inactive: [1] 0.078 | rosiglitazone -0.197 | sotrastaurin 0.07 | alvocidib -0.063 | Tubastatin A -0.056 | rucaparib 0.366 | encorafenib -0.019

IKZF4 (UniProt Q9H2S9)
inactive: volasertib -0.127 | [10] 0.035 | epoxomicin 0.103 | [8] 0.007 | [2] -0.03 | [3] -0.167 | rosiglitazone 0.114 | [4] -0.096 | [5] -0.109 | saracatinib -0.009 | sotrastaurin -0.157 | alvocidib -0.136 | [9] -0.119 | defactinib -0.271 | [6] -0.159 | [7] 0.049

INHBE (UniProt P58166)
inactive: [1] 0.052 | [8] 0.023 | [3] -0.021 | rosiglitazone -0.158 | sotrastaurin 0.097 | [9] 0 | defactinib 0.11 | rucaparib -0.239 | encorafenib 0.105 | [7] 0.077

INTS1 (UniProt Q8N201)
inactive: [1] 0.079 | [10] -0.245 | epoxomicin -0.178 | [8] -0.037 | [2] 0.013 | [4] 0.018 | [5] -0.258 | saracatinib -0.098 | sotrastaurin 0.504 | Tubastatin A 0.153 | [9] 0.023 | rucaparib 0.093 | [6] -0.101 | encorafenib -0.124

IPO8 (UniProt O15397)
inactive: [1] 0.069 | volasertib -0.186 | epoxomicin -0.098 | [8] -0.112 | [3] 0.072 | rosiglitazone -0.136 | [4] 0.291 | saracatinib -0.173 | sotrastaurin -0.177 | alvocidib 0.082 | Tubastatin A 0.092 | [9] -0.012 | defactinib -0.159 | rucaparib 0.234 | [6] 0.046 | encorafenib 0.172 | [7] 0.105

IGLL5 (UniProt B9A064)
inactive: [1] 0.016 | volasertib 0.045 | [10] 0.971 | [2] -0.001 | rosiglitazone -0.057 | [5] -0.144 | sotrastaurin 0.123 | Tubastatin A 0.019 | rucaparib -0.304 | encorafenib -0.073

IQSEC2 (UniProt Q5JU85)
inactive: [1] 0.01 | volasertib -0.208 | [10] -0.197 | [4] 0.222 | saracatinib -0.516 | alvocidib 0 | rucaparib 0.111 | [6] 0.012 | encorafenib -0.102

ING5 (UniProt Q8WYH8)
inactive: Tubastatin A 0.192 | [9] -0.147 | rucaparib 0.129 | encorafenib -0.078
active: [1] -0.561 | volasertib -1.47

IGHG1 (UniProt P01857)
inactive: [1] 0.16 | [10] 0.474 | [8] 0.042 | [3] 0.08 | rosiglitazone 0 | [4] 0.579 | saracatinib -0.195 | sotrastaurin -0.02 | [9] 0.116 | defactinib -0.224 | rucaparib -0.025 | [6] -0.072 | encorafenib -0.157 | [7] -0.247

Two entries picked at random from the list so far, as already listed:
ITIH1 (UniProt P19827)
inactive: [1] 0.066 | [8] -0.184 | [9] 0.05 | rucaparib -0.017 | encorafenib 0.034

IPO8 (UniProt O15397)
inactive: [1] 0.069 | volasertib -0.186 | epoxomicin -0.098 | [8] -0.112 | [3] 0.072 | rosiglitazone -0.136 | [4] 0.291 | saracatinib -0.173 | sotrastaurin -0.177 | alvocidib 0.082 | Tubastatin A 0.092 | [9] -0.012 | defactinib -0.159 | rucaparib 0.234 | [6] 0.046 | encorafenib 0.172 | [7] 0.105
